Source: the supplement of paper PMC10331698
± gives the standard deviation of the averaged measurements. Most values lie at the level of the controls, where differences are scatter.

How the values were obtained:
Assay in all cases: level (log10 ratio to DMSO vehicle control); higher = higher biomarker level / cell amount than vehicle control
[1] = compound: C=C(C)C(=O)OCCC(F)(F)C(F)(F)C(F)(F)C(F)(F)C(F)(F)C(F)(F)F [6:2 Fluorotelomer methacrylate] (in DMSO); conditions: 2200 nM
Method: (§1)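 BioMAP Diversity Plus panel of 12 human primary cell co-culture systems (3C, 4H, LPS, SAg, BT, BF4T, BE3C, CASM3C, HDF3CGF, KF3CT, MyoF, Mphg). Compounds were added 1 h before stimulation and left for 24 h (MyoF 48 h; BT 72 h for soluble read-outs or 6 d for IgG). Biomarkers were read by ELISA, cytotoxicity by SRB, PBMC viability and proliferation by Alamar Blue. Each well value was divided by the mean of 8 DMSO control wells on the same plate and log10 transformed; duplicate blinded samples were tested at 4 concentrations.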

[2] = compound: CNS(=O)(=O)C(F)(F)C(F)(F)C(F)(F)C(F)(F)C(F)(F)C(F)(F)C(F)(F)C(F)(F)F [N-Methylperfluorooctanesulfonamide] (in DMSO); conditions: 2200 nM
Method: as §1

[3] = compound: FC(F)(F)C(F)(F)C(F)(F)C(F)(F)CCI [1H,1H,2H,2H-Perfluorohexyl iodide] (in DMSO); conditions: 2200 nM
Method: as §1

[4] = compound: FC(F)(F)C(F)(F)CNCC(F)(F)C(F)(F)F [Bis(1H,1H-perfluoropropyl)amine] (in DMSO); conditions: 2200 nM
Method: as §1

[5] = compound: FC(F)(F)COC(OCC(F)(F)F)OCC(F)(F)F [tris(Trifluoroethoxy)methane] (in DMSO); conditions: 2200 nM
Method: as §1

Hexafluoroglutaric acid = compound: O=C(O)C(F)(F)C(F)(F)C(F)(F)C(=O)O [Hexafluoroglutaric acid] (in DMSO)
Method: as §1

Perfluorohexanoic acid = compound: O=C(O)C(F)(F)C(F)(F)C(F)(F)C(F)(F)C(F)(F)F [Perfluorohexanoic acid] (in DMSO)
Method: as §1

[6] = compound: O=C(O)C(F)(F)C(F)(F)C(F)(F)OC(F)(C(F)(F)F)C(F)(F)F [Perfluoro-4-isopropoxybutanoic acid] (in DMSO); conditions: 2200 nM
Method: as §1

[7] = compound: O=C(O)C(F)(OC(F)(F)C(F)(F)C(F)(F)F)C(F)(F)F [Ammonium perfluoro-2-methyl-3-oxahexanoate] (in Water)
Method: as §1

[8] = compound: O=C(O)C(F)(OC(F)(F)C(F)(OC(F)(F)C(F)(OC(F)(F)C(F)(F)C(F)(F)F)C(F)(F)F)C(F)(F)F)C(F)(F)F [Perfluoro-(2,5,8-trimethyl-3,6,9-trioxadodecanoic)acid] (in DMSO); conditions: 370 nM
Method: as §1

[9] = compound: O=C(O)CCC(F)(F)C(F)(F)C(F)(F)F [3:3 Fluorotelomer carboxylic acid] (in DMSO); conditions: 2200 nM
Method: as §1

[10] = compound: O=S(=O)(O)C(F)(F)C(F)(F)C(F)(F)C(F)(F)F [Perfluorobutanesulfonic acid] (in DMSO)
Method: as §1

[11] = compound: OCC(F)(F)C(F)(F)C(F)(F)C(F)(F)C(F)(F)C(F)(F)CO [1H,1H,8H,8H-Perfluorooctane-1,8-diol] (in DMSO); conditions: 2200 nM
Method: as §1

[12] = compound: OCC(F)(F)C(F)(F)C(F)(F)C(F)(F)C(F)(F)C(F)(F)F [6:1 Fluorotelomer alcohol] (in DMSO); conditions: 2200 nM
Method: as §1

[13] = compound: OCC(F)(F)C(F)(F)C(F)(F)C(F)F [1H,1H,5H-Perfluoropentanol] (in DMSO); conditions: 2200 nM
Method: as §1

[14] = compound: OCC(F)(F)OC(F)(F)C(F)(F)OC(F)(F)CO [1H,1H,8H,8H-Perfluoro-3,6-dioxaoctane-1,8-diol] (in DMSO); conditions: 2200 nM
Method: as §1

[15] = compound: OCCCC(F)(F)C(F)(F)C(F)(F)C(F)(F)C(F)(F)C(F)(F)C(F)(F)C(F)(F)F [3-(Perfluorooctyl)propanol] (in DMSO); conditions: 2200 nM
Method: as §1

Test System | level (log10) [1] | level (log10) [2] | level (log10) [3] | level (log10) [4] | level (log10) [5] | level (log10) (Hexafluoroglutaric acid; 2200 nM) | level (log10) (Hexafluoroglutaric acid; 6700 nM) | level (log10) (Hexafluoroglutaric acid; 20000 nM) | level (log10) (Hexafluoroglutaric acid; 60000 nM) | level (log10) (Perfluorohexanoic acid; 2200 nM) | level (log10) (Perfluorohexanoic acid; 6700 nM) | level (log10) (Perfluorohexanoic acid; 20000 nM) | level (log10) (Perfluorohexanoic acid; 60000 nM) | level (log10) [6] | level (log10) ([7]; 2200 nM) | level (log10) ([7]; 6700 nM) | level (log10) ([7]; 20000 nM) | level (log10) ([7]; 60000 nM) | level (log10) [8] | level (log10) [9] | level (log10) ([10]; 2200 nM) | level (log10) ([10]; 6700 nM) | level (log10) ([10]; 20000 nM) | level (log10) ([10]; 60000 nM) | level (log10) [11] | level (log10) [12] | level (log10) [13] | level (log10) [14] | level (log10) [15]
LPS:CD142/Tissue Factor | 0.003 ± 0.071 | -0.004 ± 0.027 | 0.027 ± 0.0071 | 0.051 ± 0.072 | 0.034 ± 0.1 | 0.021 ± 0.073 | 0.0325 ± 0.08 | -0.0085 ± 0.077 | -0.0285 ± 0.081 | 0.0175 ± 0.025 | 0.0205 ± 0.021 | 0.0045 ± 0.011 | 0.015 ± 0.0071 | 0.039 ± 0.018 | 0.081 ± 0.033 | 0.0885 ± 0.064 | 0.0845 ± 0.028 | 0.075 ± 0.045 | 0.001 ± 0.0028 | -0.019 ± 0.011 | 0.0575 ± 0.0078 | 0.016 ± 0.038 | -0.0155 ± 0.039 | -0.0175 ± 0.016 | -0.025 ± 0.0085 | -0.0065 ± 0.011 | 0.014 ± 0.014 | -0.0045 ± 0.0092 | -0.0315 ± 0.0092
LPS:CXCL8/IL-8 | 0.033 ± 0.059 | 0.0045 ± 0.042 | 0.0345 ± 0.016 | 0.0125 ± 0.036 | 0 ± 0.05 | -0.024 ± 0.014 | -0.0235 ± 0.012 | -0.0535 ± 0.018 | -0.028 ± 0.067 | 0.0135 ± 0.023 | 0.0035 ± 0.016 | 0.011 ± 0.0028 | 0.0575 ± 0.0035 | 0.0315 ± 0.04 | 0.0265 ± 0.0064 | 0.023 ± 0.031 | 0.0895 ± 0.016 | 0.131 ± 0.017 | 0.0215 ± 0.025 | -0.0065 ± 0.028 | 0.014 ± 0.025 | 0.0225 ± 0.019 | 0.0125 ± 0.021 | 0.0765 ± 0.00071 | 0.0205 ± 0.021 | -0.001 ± 0.021 | -0.012 ± 0.033 | 0.012 ± 0.013 | 0.0085 ± 0.018
LPS:IL-1alpha | -0.0015 ± 0.033 | 0.0455 ± 0.025 | 0.032 ± 0.031 | -0.0235 ± 0.012 | 0.0005 ± 0.081 | 0.0115 ± 0.0035 | -0.023 ± 0.02 | -0.0325 ± 0.0064 | 0.002 ± 0.037 | 0.0115 ± 0.012 | 0.0135 ± 0.0064 | 0.0145 ± 0.0092 | -0.003 ± 0.02 | 0.019 ± 0.062 | 0.0815 ± 0.11 | 0.0325 ± 0.04 | 0.0475 ± 0.015 | 0.019 ± 0.062 | 0.01 ± 0.035 | 0.01 ± 0.057 | -0.001 ± 0.095 | -0.0445 ± 0.067 | -0.0235 ± 0.013 | -0.0265 ± 0.05 | -0.005 ± 0.034 | 0.0185 ± 0.016 | -0.0395 ± 0.013 | -0.0165 ± 0.046 | 0.0375 ± 0.03
LPS:M-CSF | 0.0045 ± 0.0021 | -0.003 ± 0.014 | 0.0155 ± 0.0021 | 0.026 ± 0.023 | 0.008 ± 0.014 | 0.003 ± 0.035 | 0.024 ± 0.047 | -0.019 ± 0.028 | -0.034 ± 0.051 | 0.0065 ± 0.0021 | 0.002 ± 0.0099 | -0.0125 ± 0.015 | -0.0055 ± 0.025 | 0.012 ± 0.025 | -0.0145 ± 0.026 | -0.02 ± 0.024 | -0.009 ± 0.016 | -0.0045 ± 0.005 | -0.0105 ± 0.0021 | 0 ± 0.013 | -0.0155 ± 0.015 | 0.021 ± 0.016 | -0.0035 ± 0.00071 | 0.01 ± 0.014 | 0.037 ± 0.011 | 0.006 ± 0.037 | 0.017 ± 0.03 | -0.006 ± 0.0028 | 0.003 ± 0.058
LPS:SRB | 0.0035 ± 0.015 | 0.0065 ± 0.0035 | 0.0115 ± 0.019 | 0.0055 ± 0.0035 | 0.0005 ± 0.005 | -0.002 ± 0.018 | -0.0025 ± 0.011 | -0.0065 ± 0.016 | 0.01 ± 0.025 | -0.004 ± 0.014 | -0.013 ± 0.0071 | -0.009 | -0.0065 ± 0.0078 | -0.008 ± 0.0042 | -0.013 ± 0.0028 | -0.009 ± 0.0028 | -0.0075 ± 0.00071 | -0.009 ± 0.0014 | -0.002 ± 0.016 | 0.004 ± 0.014 | 0.009 ± 0.02 | 0.0065 ± 0.011 | 0.004 ± 0.0057 | 0.002 ± 0.0057 | 0.007 ± 0.014 | -0.001 ± 0.0071 | -0.006 ± 0.013 | -0.003 ± 0.018 | 0.0035 ± 0.016
LPS:sPGE2 | 0.053 ± 0.025 | 0.0295 ± 0.042 | -0.021 ± 0.0042 | -0.0055 ± 0.015 | 0.008 ± 0.011 | -0.062 ± 0.011 | -0.0265 ± 0.028 | -0.039 ± 0.031 | -0.0185 ± 0.069 | 0.0035 ± 0.036 | 0.025 ± 0.052 | 0.013 ± 0.021 | -0.009 ± 0.041 | -0.0255 ± 0.011 | 0.129 ± 0.017 | 0.093 ± 0.061 | 0.0575 ± 0.039 | 0.0765 ± 0.018 | -0.051 ± 0.018 | -0.02 ± 0.048 | 0.011 ± 0.011 | 0.0595 ± 0.011 | 0.041 ± 0.051 | 0.0355 ± 0.043 | -0.006 ± 0.034 | 0.092 ± 0.017 | 0.0185 ± 0.0021 | -0.026 ± 0.028 | -0.038 ± 0.024
LPS:sTNF-alpha | 0.0275 ± 0.023 | 0.0455 ± 0.013 | 0.046 ± 0.035 | 0.0045 ± 0.019 | -0.0045 ± 0.016 | 0 ± 0.021 | 0.0045 ± 0.026 | -0.0025 ± 0.022 | 0.0035 ± 0.0064 | -0.0235 ± 0.029 | -0.009 ± 0.0014 | -0.0005 ± 0.021 | -0.0515 ± 0.0021 | 0.0145 ± 0.14 | -0.054 ± 0.038 | -0.068 ± 0.021 | -0.0375 ± 0.043 | -0.0225 ± 0.033 | -0.024 ± 0.05 | 0.0045 ± 0.011 | -0.019 ± 0.054 | 0.002 ± 0.028 | -0.0175 ± 0.023 | -0.0075 ± 0.026 | -0.125 ± 0.013 | 0.003 ± 0.033 | 0.022 ± 0.028 | -0.049 ± 0.013 | -0.136 ± 0.038
MyoF:CD106/VCAM-1 | -0.0075 ± 0.029 | -0.002 ± 0.018 | -0.001 ± 0.0085 | -0.0085 ± 0.0035 | -0.03 ± 0.0042 | -0.0255 ± 0.018 | -0.0145 ± 0.021 | -0.023 ± 0.0099 | -0.006 ± 0.0014 | 0.0025 ± 0.0064 | 0.002 ± 0.0057 | 0.002 ± 0.0071 | -0.0095 ± 0.013 | 0.0045 ± 0.013 | -0.0035 ± 0.011 | 0.0105 ± 0.033 | 0.012 ± 0.011 | -0.011 ± 0.0099 | 0.007 ± 0.0085 | -0.0095 ± 0.019 | 0.003 ± 0.038 | -0.004 ± 0.0028 | 0.0085 ± 0.0021 | 0.0155 ± 0.016 | 0.011 ± 0.024 | 0.0005 ± 0.0064 | -0.015 ± 0.025 | -0.024 ± 0.02 | -0.0085 ± 0.019
